Source: the supplement of paper PMC11006884
The entries are a selection whose mix differs from that of the whole data set. The data scatter; read single values as rough.

Amino acid sequences for entries named in this document (tags omitted). A change or cut given only in a name is not applied to a line headed by its entry.
UniProt P46060: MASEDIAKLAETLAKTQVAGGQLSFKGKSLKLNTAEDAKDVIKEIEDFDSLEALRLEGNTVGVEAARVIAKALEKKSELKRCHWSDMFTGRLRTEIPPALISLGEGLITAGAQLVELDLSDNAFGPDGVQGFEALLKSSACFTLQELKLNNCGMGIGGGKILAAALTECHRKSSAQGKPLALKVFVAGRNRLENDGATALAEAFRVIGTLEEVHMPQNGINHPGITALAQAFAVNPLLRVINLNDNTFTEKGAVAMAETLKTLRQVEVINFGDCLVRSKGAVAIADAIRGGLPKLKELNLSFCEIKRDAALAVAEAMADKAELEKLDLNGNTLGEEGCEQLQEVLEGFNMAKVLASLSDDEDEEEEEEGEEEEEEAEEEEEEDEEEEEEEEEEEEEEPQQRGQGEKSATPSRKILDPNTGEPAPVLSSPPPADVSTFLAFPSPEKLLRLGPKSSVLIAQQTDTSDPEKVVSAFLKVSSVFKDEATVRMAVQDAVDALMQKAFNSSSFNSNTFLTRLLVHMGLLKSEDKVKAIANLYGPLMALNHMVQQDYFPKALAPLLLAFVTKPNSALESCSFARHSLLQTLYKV
UniProt P49327, whole entry, looked up: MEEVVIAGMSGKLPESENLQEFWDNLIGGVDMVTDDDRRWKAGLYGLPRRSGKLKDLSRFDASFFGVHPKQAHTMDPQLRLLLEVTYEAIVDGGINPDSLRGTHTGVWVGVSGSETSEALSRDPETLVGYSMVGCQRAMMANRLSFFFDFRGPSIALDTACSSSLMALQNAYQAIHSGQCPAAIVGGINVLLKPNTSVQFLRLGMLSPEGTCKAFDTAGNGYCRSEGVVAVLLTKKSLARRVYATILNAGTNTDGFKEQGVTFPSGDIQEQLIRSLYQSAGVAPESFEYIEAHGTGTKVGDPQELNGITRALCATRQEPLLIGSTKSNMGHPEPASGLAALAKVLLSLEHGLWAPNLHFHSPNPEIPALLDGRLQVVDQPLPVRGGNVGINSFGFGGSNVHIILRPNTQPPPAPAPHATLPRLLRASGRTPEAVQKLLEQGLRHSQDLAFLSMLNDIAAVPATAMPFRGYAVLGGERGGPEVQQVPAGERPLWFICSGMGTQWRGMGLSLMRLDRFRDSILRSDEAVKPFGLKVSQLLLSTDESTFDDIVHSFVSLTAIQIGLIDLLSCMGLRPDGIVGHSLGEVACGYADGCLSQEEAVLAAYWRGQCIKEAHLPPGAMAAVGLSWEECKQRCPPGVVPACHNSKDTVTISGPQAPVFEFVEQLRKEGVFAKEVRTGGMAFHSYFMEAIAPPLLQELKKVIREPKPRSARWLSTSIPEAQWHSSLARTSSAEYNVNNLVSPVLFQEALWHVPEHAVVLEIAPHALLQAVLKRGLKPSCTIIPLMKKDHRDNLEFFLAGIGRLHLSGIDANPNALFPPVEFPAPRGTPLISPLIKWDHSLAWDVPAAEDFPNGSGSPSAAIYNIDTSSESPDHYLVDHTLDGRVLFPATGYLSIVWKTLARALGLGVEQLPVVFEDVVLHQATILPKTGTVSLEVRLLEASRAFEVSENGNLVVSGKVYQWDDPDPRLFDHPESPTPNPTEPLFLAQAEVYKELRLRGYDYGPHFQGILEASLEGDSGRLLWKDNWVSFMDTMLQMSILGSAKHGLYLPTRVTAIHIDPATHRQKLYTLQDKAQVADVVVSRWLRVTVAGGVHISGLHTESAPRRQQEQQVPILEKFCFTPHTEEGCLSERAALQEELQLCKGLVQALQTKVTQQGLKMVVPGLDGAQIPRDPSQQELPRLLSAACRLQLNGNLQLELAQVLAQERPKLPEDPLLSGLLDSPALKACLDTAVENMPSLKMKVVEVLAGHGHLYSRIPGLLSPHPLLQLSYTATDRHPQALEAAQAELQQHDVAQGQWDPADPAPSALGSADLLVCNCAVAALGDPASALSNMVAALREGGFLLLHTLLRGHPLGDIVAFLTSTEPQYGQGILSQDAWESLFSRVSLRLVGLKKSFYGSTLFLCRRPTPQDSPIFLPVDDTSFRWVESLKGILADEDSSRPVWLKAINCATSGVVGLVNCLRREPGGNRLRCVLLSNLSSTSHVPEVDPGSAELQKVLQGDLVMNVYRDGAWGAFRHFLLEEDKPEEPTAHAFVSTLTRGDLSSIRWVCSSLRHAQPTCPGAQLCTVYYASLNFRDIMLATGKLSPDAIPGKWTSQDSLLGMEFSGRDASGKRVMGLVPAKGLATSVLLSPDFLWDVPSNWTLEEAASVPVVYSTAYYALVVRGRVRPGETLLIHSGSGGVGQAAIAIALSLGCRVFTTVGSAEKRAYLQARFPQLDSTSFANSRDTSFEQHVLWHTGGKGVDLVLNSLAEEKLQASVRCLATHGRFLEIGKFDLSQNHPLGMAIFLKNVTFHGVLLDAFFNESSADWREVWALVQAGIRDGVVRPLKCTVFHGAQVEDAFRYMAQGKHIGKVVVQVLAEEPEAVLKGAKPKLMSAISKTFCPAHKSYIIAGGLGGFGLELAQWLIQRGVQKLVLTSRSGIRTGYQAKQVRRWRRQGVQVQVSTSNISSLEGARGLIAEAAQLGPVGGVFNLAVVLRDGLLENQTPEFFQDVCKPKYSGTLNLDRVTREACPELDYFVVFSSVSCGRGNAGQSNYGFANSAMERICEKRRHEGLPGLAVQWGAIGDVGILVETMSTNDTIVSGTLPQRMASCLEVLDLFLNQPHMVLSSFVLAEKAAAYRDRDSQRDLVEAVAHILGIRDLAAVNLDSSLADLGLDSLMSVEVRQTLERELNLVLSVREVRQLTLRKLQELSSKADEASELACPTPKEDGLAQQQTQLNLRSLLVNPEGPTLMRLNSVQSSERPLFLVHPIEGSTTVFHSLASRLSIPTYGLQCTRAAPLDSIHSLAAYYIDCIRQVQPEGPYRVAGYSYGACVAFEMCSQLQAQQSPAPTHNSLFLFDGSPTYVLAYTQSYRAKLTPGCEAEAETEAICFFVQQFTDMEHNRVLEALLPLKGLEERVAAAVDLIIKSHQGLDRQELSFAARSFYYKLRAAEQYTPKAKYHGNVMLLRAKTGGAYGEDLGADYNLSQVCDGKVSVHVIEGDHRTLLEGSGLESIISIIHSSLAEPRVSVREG
UniProt P49711: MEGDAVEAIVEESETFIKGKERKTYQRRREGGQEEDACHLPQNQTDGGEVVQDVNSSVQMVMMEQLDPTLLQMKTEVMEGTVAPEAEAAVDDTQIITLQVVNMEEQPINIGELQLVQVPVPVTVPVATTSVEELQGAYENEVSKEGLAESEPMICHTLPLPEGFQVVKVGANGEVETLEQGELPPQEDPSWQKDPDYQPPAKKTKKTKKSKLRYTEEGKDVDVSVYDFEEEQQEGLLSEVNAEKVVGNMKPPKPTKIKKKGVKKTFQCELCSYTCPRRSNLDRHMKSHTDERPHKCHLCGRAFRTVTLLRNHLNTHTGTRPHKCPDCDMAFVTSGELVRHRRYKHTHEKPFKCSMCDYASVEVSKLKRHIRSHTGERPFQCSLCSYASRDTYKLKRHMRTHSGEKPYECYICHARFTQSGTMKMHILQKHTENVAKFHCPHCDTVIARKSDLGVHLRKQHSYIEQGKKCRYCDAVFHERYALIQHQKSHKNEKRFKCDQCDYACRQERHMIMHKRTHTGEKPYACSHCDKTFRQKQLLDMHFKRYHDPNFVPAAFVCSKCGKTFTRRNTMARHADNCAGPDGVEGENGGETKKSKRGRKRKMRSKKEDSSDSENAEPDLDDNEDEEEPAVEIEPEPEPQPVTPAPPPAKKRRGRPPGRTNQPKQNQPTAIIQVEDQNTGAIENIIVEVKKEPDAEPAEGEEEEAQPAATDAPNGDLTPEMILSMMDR
UniProt P43246, whole entry, looked up: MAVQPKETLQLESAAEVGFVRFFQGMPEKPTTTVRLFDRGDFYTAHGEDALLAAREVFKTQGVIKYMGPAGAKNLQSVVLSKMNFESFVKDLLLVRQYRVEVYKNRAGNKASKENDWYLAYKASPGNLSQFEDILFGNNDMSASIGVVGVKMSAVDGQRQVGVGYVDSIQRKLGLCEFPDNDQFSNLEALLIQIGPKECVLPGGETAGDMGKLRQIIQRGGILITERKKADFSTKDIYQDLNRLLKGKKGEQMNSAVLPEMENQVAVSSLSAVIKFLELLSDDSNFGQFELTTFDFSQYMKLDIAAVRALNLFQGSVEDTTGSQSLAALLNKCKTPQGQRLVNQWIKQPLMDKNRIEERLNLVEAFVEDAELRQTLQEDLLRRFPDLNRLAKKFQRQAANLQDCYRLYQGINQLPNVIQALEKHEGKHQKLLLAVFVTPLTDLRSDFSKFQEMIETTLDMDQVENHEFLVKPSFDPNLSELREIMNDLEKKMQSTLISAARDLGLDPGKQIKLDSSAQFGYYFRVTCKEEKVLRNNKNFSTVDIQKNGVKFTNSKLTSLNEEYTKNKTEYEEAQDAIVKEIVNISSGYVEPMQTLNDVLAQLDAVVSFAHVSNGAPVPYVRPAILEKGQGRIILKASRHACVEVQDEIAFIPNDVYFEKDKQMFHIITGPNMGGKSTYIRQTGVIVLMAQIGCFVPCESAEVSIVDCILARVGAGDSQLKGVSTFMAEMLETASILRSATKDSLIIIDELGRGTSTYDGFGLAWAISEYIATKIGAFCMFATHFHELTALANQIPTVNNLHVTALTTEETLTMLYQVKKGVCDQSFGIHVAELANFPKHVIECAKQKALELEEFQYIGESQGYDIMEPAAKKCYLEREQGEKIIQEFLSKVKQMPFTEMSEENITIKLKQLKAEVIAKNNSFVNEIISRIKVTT
UniProt P49588, whole entry, looked up: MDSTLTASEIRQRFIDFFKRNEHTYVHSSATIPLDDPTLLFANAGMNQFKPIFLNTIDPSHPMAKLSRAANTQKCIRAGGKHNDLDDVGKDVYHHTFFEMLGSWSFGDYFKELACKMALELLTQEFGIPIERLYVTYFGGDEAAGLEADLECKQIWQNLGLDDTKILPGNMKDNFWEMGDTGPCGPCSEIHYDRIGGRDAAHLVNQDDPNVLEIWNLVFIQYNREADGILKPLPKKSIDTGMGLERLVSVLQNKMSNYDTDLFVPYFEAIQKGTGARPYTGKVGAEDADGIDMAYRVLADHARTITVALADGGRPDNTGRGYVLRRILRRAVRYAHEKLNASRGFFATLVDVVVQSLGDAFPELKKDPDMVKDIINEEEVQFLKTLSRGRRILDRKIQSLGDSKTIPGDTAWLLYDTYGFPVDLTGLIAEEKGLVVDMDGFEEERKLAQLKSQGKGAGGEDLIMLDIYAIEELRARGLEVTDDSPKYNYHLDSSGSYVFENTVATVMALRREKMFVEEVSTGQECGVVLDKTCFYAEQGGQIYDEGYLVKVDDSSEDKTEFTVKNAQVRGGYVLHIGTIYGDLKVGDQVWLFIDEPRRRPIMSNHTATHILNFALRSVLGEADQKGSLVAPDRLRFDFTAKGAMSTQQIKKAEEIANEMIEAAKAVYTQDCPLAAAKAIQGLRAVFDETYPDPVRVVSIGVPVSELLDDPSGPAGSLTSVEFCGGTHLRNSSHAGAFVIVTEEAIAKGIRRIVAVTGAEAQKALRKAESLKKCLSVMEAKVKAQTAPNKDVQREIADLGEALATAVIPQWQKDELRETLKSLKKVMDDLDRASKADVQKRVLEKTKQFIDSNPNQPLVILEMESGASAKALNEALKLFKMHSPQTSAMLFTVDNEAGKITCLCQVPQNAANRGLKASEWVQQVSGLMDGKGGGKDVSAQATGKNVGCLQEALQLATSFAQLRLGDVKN
UniProt P49458: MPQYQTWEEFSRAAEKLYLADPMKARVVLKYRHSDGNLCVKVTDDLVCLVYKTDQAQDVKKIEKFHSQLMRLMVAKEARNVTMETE
UniProt P49757: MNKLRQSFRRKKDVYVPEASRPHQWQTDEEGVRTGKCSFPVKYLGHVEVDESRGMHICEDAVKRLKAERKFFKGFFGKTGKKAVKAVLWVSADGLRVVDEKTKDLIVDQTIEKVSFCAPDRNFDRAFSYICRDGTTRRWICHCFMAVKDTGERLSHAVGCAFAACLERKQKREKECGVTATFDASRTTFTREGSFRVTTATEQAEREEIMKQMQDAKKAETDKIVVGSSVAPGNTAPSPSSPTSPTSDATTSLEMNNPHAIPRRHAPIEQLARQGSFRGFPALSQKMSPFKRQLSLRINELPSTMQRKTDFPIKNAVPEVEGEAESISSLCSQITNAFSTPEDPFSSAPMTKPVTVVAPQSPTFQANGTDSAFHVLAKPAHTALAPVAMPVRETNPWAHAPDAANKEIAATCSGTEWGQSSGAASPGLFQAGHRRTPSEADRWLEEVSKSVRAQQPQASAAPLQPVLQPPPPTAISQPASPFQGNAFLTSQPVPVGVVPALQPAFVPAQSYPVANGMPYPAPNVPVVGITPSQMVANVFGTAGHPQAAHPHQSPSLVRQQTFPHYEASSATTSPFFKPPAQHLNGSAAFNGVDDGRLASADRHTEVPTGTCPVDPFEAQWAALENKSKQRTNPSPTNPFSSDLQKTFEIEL

Compound: COC(=O)/C=C/c1ccccc1 [methyl cinnamate]
Test: log2 ratio of iodoacetamide-alkyne labeling of the cysteine site, DMSO over compound (competition); higher = stronger covalent engagement of the cysteine by the compound, active = 1 or more
Conditions: 500 µM; treatment time 1 h; system: HEK293T cell lysate
Outline: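 Electrophile (500 µM) or vehicle was added to HEK293T lysate (2 mg/mL) for 1 h at ambient temperature before iodoacetamide alkyne labelling (1 h) and click coupling to sCIP-TMT reagents. After pooling, overnight trypsin digestion at 37 °C, streptavidin enrichment and acid elution, peptides were measured by Orbitrap Eclipse LC-MS/MS with FAIMS and quantified in FragPipe. Each cysteine's log2 competition ratio compares mean control-channel with mean compound-channel reporter intensity, control over compound. Data came from duplicate channels across three replicates, excluding cysteines quantified in only one replicate.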

| Target | log2 ratio of iodoacetamide-alkyne labeling |
| --- | --- |
| RANGAP1 C303 (UniProt P46060) | inactive: 0.272 |
| GALK1 C182 (UniProt P51570) | inactive: -0.321 |
| FASN C2024 (UniProt P49327) | inactive: -0.229 |
| UniProt P49591_C431 | inactive: -0.0487 |
| MAP1B C382 (UniProt P46821) | inactive: 0.579 |
| METAP2 C121 (UniProt P50579) | inactive: 0.373 |
| CCT8 C36 (UniProt P50990) | inactive: 0.176 |
| EIF2B2 C310 (UniProt P49770) | inactive: 0.0373 |
| CTCF C38 (UniProt P49711) | inactive: -0.0136 |
| FASN C1127 (UniProt P49327) | inactive: 0.128 |
| MSH2 C843 (UniProt P43246) | inactive: 0.343 |
| RANBP2 C348 (UniProt P49792) | inactive: -0.00425 |
| PCYT1A C5 (UniProt P49585) | inactive: 0.244 |
| NDUFV1 C206 (UniProt P49821) | inactive: -0.0789 |
| YLPM1 C1967 (UniProt P49750) | inactive: 0.133 |
| AARS C947 (UniProt P49588) | inactive: 0.154 |
| ERF C189 (UniProt P50548) | inactive: 0.336 |
| RPL21 C56 (UniProt P46778) | inactive: 0.241 |
| VASP C64 (UniProt P50552) | inactive: -0.0221 |

Reformatted with tabs: entries from further up.
Target	log2 ratio of iodoacetamide-alkyne labeling
CCT8 C36 (UniProt P50990)	inactive: 0.176
EIF2B2 C310 (UniProt P49770)	inactive: 0.0373
CTCF C38 (UniProt P49711)	inactive: -0.0136
FASN C1127 (UniProt P49327)	inactive: 0.128
MSH2 C843 (UniProt P43246)	inactive: 0.343
RANBP2 C348 (UniProt P49792)	inactive: -0.00425
PCYT1A C5 (UniProt P49585)	inactive: 0.244
NDUFV1 C206 (UniProt P49821)	inactive: -0.0789
YLPM1 C1967 (UniProt P49750)	inactive: 0.133
AARS C947 (UniProt P49588)	inactive: 0.154

Following part.

| Target | log2 ratio of iodoacetamide-alkyne labeling |
| --- | --- |
| SRP9 C48 (UniProt P49458) | inactive: -0.00062 |
| FASN C1118 (UniProt P49327) | inactive: 0.00123 |
| NUMB C611 (UniProt P49757) | inactive: 0.282 |
| UniProt P49840_C398 | inactive: 0.0746 |
| UniProt P49674_C255 | inactive: -0.019 |
| GMPS C489 (UniProt P49915) | inactive: 0.226 |
| CCT4 C295 (UniProt P50991) | inactive: 0.24 |
| MRPL19 C248 (UniProt P49406) | inactive: -0.069 |
| CCT5 C302 (UniProt P48643) | inactive: 0.114 |
| RPS5 C172 (UniProt P46782) | inactive: -0.0134 |
| CCT3 C173 (UniProt P49368) | inactive: 0.332 |
| IQGAP1 C1534 (UniProt P46940) | inactive: 0.224 |
| CCT4 C379 (UniProt P50991) | inactive: 0.282 |
| IDH3A C127 (UniProt P50213) | inactive: 0.195 |
| AARS C773 (UniProt P49588) | inactive: 0.295 |
| CCT3 C213 (UniProt P49368) | inactive: 0.05 |
| USP5 C219 (UniProt P45974) | inactive: -0.413 |
| CCT5 C181 (UniProt P48643) | inactive: 0.195 |
